The other results are listed elsewhere or left out.
compound: C1CCN(C1)C(=O)NC2=CC=CC(=C2)NC3=NC=C(C(=N3)NCCC4=CN=CN4)Br; assay: log2 fold change, soluble protein after heating vs DMSO (PISA); higher = thermal stabilisation; K562 cells, 10 uM, 30 min; active = over 0.2 and 3.5 SD of the protein, either way, in both replicates (recomputed)
Outline: (§1)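 K562 cells (2×10^6 cells/mL) were treated with 10 μM compound for 30 min, and aliquots were heated for 3 min over 48°C-58°C. Pooled aliquots were extracted in PBS with 0.5% NP-40 at 4°C, and the supernatant after 21,000xg for 90 min was measured by TMTpro 16plex LC-MS/MS with channel sums equalised. Reported thermal stability, relative to control samples and from duplicates, is a log2 fold change.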

The chains behind the UniProt entries cited, without tags or fusion partners. Where a name states a change or a piece, a line headed by the entry shows the natural chain unless it says otherwise.
UniProt Q9P2X0: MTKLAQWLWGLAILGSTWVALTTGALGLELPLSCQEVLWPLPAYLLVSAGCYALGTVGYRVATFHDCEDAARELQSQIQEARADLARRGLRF
UniProt Q9UDY4: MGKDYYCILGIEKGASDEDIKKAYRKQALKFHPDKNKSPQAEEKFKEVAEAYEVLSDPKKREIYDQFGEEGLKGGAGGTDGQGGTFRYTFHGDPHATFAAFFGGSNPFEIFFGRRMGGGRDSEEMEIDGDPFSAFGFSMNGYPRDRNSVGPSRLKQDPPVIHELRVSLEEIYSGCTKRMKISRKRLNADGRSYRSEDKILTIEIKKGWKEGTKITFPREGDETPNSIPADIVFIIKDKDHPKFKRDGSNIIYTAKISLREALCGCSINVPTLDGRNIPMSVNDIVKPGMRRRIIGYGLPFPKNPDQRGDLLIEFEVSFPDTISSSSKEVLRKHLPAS
UniProt O60869: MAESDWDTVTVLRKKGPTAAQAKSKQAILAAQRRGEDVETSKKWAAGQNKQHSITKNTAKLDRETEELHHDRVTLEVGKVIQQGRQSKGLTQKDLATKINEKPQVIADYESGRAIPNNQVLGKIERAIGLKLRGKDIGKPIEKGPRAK
UniProt P42892: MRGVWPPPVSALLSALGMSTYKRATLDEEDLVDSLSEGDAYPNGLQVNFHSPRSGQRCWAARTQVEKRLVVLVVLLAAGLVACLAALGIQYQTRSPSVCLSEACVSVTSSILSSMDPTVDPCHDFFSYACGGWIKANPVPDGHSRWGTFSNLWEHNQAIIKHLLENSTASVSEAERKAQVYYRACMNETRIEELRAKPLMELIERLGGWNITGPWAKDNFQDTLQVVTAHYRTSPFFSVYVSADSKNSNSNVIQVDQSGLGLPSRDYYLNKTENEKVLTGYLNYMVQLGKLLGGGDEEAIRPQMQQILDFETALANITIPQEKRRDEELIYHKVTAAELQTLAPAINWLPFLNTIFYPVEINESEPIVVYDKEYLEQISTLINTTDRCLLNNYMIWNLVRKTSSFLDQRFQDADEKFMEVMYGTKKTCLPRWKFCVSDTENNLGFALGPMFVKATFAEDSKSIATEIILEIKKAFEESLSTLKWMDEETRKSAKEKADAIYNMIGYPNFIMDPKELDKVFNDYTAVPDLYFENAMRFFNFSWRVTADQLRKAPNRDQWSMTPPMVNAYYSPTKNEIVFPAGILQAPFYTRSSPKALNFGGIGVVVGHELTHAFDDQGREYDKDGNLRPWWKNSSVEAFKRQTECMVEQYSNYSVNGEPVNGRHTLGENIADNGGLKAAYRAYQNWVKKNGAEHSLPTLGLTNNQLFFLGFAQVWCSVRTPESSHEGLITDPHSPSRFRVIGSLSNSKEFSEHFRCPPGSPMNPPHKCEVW
UniProt Q01658: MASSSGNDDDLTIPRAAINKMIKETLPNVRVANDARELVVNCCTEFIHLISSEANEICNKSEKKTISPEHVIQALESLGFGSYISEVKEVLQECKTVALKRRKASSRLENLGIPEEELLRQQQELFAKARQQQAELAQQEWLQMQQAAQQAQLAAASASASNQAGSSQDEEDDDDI
UniProt Q5SXM8: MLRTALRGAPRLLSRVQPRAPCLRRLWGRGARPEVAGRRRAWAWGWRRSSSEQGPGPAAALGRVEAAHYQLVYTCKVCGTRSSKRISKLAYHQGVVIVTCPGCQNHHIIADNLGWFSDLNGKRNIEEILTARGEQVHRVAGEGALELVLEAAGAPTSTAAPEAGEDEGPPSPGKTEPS
UniProt Q14919: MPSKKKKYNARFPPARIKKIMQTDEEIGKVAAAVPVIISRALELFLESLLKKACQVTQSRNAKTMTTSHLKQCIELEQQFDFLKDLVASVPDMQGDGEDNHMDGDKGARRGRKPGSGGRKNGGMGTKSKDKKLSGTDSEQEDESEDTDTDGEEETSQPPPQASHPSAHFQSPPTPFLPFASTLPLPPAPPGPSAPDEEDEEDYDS
UniProt Q16254: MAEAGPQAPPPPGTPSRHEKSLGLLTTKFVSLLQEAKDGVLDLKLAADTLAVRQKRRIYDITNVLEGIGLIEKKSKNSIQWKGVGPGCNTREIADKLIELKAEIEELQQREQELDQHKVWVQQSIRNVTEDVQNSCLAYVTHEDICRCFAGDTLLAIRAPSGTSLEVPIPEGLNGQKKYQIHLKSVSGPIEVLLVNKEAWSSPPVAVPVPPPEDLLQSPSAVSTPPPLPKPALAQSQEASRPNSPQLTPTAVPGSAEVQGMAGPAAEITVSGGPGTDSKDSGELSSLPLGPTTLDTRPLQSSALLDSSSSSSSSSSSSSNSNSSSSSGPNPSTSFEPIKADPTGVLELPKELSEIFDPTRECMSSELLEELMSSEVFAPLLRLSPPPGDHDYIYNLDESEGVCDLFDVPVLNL
UniProt Q92611: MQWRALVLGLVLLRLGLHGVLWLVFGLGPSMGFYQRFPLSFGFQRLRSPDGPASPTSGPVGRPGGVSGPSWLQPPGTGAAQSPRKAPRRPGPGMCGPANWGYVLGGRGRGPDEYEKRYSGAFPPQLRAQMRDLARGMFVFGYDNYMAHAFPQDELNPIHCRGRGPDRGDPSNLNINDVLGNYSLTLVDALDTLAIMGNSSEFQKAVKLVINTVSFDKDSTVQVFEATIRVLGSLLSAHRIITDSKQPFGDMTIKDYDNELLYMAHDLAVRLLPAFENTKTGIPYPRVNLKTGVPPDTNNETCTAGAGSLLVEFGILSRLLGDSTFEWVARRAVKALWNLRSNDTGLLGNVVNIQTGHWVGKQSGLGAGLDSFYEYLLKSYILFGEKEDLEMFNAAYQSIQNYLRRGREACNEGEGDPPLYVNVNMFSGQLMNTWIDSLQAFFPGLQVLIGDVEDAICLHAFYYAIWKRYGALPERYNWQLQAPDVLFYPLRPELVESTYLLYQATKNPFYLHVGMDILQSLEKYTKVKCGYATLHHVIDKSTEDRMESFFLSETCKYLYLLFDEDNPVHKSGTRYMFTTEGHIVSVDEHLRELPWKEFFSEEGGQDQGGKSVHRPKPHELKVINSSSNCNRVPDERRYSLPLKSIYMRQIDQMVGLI
UniProt Q16610: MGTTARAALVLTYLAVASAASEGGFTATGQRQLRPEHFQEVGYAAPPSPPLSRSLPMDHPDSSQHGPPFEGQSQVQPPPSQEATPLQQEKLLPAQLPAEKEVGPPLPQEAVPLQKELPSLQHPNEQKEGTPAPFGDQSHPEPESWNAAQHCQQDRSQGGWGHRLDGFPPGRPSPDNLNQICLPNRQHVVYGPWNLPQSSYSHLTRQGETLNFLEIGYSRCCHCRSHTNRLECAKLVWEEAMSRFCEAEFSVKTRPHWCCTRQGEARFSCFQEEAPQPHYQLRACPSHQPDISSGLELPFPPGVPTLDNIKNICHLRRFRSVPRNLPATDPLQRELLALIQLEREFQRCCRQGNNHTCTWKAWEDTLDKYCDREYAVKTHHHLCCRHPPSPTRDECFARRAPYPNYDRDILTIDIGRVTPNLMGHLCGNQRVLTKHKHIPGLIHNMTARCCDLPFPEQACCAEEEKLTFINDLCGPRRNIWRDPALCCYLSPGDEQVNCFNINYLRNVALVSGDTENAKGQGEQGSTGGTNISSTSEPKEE
UniProt Q6P2E9: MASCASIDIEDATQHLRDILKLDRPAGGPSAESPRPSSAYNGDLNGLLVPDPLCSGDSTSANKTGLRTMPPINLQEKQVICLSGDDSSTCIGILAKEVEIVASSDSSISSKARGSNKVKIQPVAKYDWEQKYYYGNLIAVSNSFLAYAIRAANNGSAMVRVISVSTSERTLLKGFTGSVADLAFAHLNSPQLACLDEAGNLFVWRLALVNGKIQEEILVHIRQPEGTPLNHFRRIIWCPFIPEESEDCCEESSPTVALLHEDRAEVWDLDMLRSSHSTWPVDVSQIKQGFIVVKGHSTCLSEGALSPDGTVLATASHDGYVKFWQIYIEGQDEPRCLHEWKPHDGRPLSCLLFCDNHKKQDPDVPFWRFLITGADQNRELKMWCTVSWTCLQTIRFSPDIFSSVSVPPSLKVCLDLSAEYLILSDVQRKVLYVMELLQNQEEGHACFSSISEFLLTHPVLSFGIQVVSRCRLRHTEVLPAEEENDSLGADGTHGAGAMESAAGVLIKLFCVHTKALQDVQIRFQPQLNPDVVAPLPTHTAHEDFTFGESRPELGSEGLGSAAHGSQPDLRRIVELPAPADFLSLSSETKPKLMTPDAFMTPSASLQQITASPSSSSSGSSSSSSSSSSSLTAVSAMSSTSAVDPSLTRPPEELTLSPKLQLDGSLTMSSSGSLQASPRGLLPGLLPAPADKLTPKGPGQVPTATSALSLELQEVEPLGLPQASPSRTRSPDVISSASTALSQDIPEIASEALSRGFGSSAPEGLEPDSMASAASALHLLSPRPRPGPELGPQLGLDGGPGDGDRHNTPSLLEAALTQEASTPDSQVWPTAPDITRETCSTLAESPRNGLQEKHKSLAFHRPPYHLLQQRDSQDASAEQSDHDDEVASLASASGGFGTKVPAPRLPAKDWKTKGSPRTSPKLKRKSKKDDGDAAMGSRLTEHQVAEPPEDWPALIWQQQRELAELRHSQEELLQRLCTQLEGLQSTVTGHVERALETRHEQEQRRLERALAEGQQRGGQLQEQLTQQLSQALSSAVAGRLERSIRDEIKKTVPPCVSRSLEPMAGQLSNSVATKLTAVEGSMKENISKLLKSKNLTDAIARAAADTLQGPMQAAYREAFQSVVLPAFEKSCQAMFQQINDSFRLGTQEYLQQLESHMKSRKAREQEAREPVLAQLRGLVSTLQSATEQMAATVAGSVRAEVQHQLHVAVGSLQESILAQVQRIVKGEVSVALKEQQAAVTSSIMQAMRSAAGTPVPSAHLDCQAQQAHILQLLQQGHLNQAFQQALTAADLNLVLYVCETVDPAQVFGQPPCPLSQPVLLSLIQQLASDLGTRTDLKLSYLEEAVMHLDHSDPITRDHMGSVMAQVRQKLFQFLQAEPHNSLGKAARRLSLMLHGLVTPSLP
UniProt P51452: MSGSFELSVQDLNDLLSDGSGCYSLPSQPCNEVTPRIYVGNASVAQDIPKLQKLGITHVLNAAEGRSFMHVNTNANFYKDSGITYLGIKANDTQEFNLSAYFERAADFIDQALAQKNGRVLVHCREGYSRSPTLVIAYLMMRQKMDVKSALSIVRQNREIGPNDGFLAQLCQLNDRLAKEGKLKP
UniProt Q13011: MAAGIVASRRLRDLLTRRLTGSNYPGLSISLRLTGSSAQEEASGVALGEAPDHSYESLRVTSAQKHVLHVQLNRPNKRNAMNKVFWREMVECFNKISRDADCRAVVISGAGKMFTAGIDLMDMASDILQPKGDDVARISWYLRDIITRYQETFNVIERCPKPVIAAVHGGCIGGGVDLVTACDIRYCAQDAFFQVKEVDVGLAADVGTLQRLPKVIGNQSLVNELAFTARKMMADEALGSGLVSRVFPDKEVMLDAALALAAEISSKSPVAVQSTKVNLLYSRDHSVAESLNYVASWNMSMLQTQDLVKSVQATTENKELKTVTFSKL
UniProt Q14126: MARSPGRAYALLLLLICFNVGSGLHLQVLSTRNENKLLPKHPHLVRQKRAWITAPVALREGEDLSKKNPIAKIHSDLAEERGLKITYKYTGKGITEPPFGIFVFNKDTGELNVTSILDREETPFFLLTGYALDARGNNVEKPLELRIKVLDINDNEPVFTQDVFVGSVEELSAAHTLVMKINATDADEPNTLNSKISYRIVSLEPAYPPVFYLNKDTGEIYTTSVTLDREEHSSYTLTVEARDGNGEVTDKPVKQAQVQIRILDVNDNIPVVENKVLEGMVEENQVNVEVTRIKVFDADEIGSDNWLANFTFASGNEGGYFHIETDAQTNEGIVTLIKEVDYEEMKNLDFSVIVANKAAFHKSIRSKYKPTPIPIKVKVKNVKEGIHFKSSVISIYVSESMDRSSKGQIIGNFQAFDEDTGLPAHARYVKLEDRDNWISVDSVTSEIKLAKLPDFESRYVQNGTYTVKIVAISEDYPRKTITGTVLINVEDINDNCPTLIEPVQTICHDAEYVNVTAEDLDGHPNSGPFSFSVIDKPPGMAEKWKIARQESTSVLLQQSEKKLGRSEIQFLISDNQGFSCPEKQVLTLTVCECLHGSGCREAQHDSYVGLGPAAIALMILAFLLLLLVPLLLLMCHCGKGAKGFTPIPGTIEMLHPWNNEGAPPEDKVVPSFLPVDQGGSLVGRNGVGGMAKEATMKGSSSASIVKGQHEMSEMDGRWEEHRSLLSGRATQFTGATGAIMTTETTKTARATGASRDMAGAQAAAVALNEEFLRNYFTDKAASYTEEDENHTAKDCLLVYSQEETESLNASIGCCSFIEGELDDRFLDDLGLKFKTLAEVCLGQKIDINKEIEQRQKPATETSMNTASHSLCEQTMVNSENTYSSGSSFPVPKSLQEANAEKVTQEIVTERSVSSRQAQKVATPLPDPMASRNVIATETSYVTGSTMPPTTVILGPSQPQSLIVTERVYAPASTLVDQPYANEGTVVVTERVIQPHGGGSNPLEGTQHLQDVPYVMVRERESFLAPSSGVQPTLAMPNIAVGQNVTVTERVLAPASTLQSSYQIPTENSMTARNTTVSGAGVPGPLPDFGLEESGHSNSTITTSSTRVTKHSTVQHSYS

Target	log2 fold change
DNAJC17 (UniProt Q9NVM6)	inactive: -0.037
DPM3 isoform 2 (UniProt Q9P2X0)	inactive: -0.003
DNAJB4 (UniProt Q9UDY4)	inactive: 0.018
EDF1 (UniProt O60869)	inactive: 0.013
ECE1 (UniProt P42892)	inactive: -0.017
DNAJB11 (UniProt Q9UBS4)	inactive: 0.024
DR1 (UniProt Q01658)	inactive: -0.006
DNLZ (UniProt Q5SXM8)	inactive: 0.054
DOCK9 isoform 4 (UniProt Q9BZ29)	inactive: -0.101
DPH1 (UniProt Q9BZG8)	inactive: -0.117

compound: C1CN(CCC1(CC2=CC=C(C=C2)Cl)N)C3=NC=NC4=C3C=CN4; assay: as above
Outline: as §1

Target	log2 fold change
DNAJC13 (UniProt O75165)	inactive: 0.003
DYRK1A isoform 2 (UniProt Q13627)	inactive: -0.067
DRAP1 isoform 2 (UniProt Q14919)	inactive: 0.028
E2F4 (UniProt Q16254)	inactive: -0.022
DNAJC2 (UniProt Q99543)	inactive: -0.306
DNAJC5 (UniProt Q9H3Z4)	inactive: 0.052
EDEM1 (UniProt Q92611)	inactive: -0.012
DNAJC7 (UniProt Q99615)	inactive: -0.043
DNASE2 (UniProt O00115)	inactive: 0.075
ECM1 isoform 4 (UniProt Q16610)	inactive: -0.023
DUT (UniProt P33316)	inactive: -0.029
EDC4 (UniProt Q6P2E9)	inactive: -0.041
DSTN (UniProt P60981)	inactive: 0.002
DOCK7 (UniProt Q96N67)	inactive: 0.05
DSC2 (UniProt Q02487)	inactive: -0.039
DUSP3 (UniProt P51452)	inactive: 0.016
DPH7 (UniProt Q9BTV6)	inactive: 0.13

Target	log2 fold change
DRG1 (UniProt Q9Y295)	inactive: -0.07
EDC3 (UniProt Q96F86)	active: -0.376
ECH1 (UniProt Q13011)	inactive: -0.064
DNAJB14 (UniProt Q8TBM8)	inactive: 0.06
DST (UniProt Q03001)	inactive: 0.129
DSG2 (UniProt Q14126)	inactive: 0.044
DNAJC17 (UniProt Q9NVM6)	inactive: -0.008
DPM3 isoform 2 (UniProt Q9P2X0)	inactive: 0.006
DNAJB4 (UniProt Q9UDY4)	inactive: 0.023
EDF1 (UniProt O60869)	inactive: 0.03
ECE1 (UniProt P42892)	inactive: 0.109
DNAJB11 (UniProt Q9UBS4)	inactive: -0.004
DR1 (UniProt Q01658)	inactive: 0.012
DNLZ (UniProt Q5SXM8)	inactive: 0.051
DOCK9 isoform 4 (UniProt Q9BZ29)	inactive: 0.13
DPH1 (UniProt Q9BZG8)	inactive: -0.02

Reference: the supplement of paper PMC10849652
